Assay results taken from article PMC12463534, “Exploring the Anticancer Properties of 4-Phenylthiazole-Based Ru(II) and Os(II) Metallacycles Featuring 1-Methylimidazole as N-Donor Functionality” (Bioinorganic Chemistry and Applications, 2025).

Experiments:
[1] = tested on: HCT116 colorectal cancer cell line (2D); test: Resazurin assay, HCT116 2D (monolayer) culture; details: HCT116, irrespective of 2D or 3D model
[2] = Amino acid interaction study (1H-NMR, HRMS); details: equimolar Ac-L-Met-OMe, Ac-L-His-OMe, Ac-L-Cys-OMe, 24 h, room temperature

Cc1ccc(C(C)C)cc1.Cn1cc[n+]([Ru-]2[c]3ccccc3-c3csc[n+]32)c1.O=[N+]([O-])[O-] [Compound 3a, [((3-κN)-1-Methylimidazole)(4-phenylthiazolato-κN,κC2′)(η^6-p-cymene)ruthenium(II)] Nitrate]
Fold more active than mesylated counterpart (3c, 4c) [1]: at least 20 fold
Adduct formation with protected amino acids [2]: no adduct formation was observed

Cc1ccc(C(C)C)cc1.Cn1cc[n+]([Ru-]2[c]3cc(S(C)(=O)=O)ccc3-c3csc[n+]32)c1.O=[N+]([O-])[O-] [Compound 3c, [((3-κN)-1-Methylimidazole)(4-(4-(methylsulfonyl)phenyl)thiazolato-κN,κC2′)(η^6-p-cymene)ruthenium(II)] Nitrate]
Adduct formation with protected amino acids [2]: no adduct formation was observed

Cc1ccc(C(C)C)cc1.Cn1cc[n+]([Os-]2[c]3ccccc3-c3csc[n+]32)c1.O=[N+]([O-])[O-] [Compound 4a, [((3-κN)-1-Methylimidazole)(4-phenylthiazolato-κN,κC2′)(η^6-p-cymene)osmium(II)] Nitrate]
Fold more active than mesylated counterpart (3c, 4c) [1]: at least 20 fold
